Values quoted from earlier work, collected in article PMC6853154 (Clinical and Translational Science, 2019).

System: CYP1A2
Details: coadministration of potent CYP1A2 inhibitor; cited from earlier work

For O=C(O)c1cn(C2CC2)c2cc(N3CCNCC3)c(F)cc2c1=O [ciprofloxacin], the “Increase of plasma exposure of tizanidine” value is listed as “up to 30 fold”.
